# No constants are given. Whether binding was seen depends on the method and setting. Binding seen in cells or lysates may run through a third protein. Some entries that bind do so weakly or less than the wild type.
# Amino acid sequences for entries named in this document (tags omitted).
# UniProt P06239: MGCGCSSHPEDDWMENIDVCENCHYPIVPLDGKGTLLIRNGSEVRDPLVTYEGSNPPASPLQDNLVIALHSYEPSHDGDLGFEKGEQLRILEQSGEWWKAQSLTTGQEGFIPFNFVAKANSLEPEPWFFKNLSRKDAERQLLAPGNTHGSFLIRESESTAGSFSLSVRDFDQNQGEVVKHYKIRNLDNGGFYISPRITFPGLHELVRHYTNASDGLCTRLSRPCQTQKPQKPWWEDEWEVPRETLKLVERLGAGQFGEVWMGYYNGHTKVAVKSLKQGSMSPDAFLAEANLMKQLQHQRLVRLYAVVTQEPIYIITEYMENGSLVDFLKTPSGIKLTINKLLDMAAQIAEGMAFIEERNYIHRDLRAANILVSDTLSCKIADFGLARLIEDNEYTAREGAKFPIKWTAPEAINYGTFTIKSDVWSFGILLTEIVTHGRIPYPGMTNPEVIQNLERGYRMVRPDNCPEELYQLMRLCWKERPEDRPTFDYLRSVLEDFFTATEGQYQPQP
# T1: RhoH (human (endogenous in Jurkat)) (UniProt Q15669)
# T1 sequence: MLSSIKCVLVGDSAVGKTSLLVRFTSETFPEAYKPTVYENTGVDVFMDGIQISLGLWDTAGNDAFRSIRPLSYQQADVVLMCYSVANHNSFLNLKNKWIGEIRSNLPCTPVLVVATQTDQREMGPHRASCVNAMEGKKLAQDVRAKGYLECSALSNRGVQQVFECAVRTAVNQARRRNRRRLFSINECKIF
# B1: RhoH (protein, UniProt Q15669 1-191)
# chain: MLSSIKCVLVGDSAVGKTSLLVRFTSETFPEAYKPTVYENTGVDVFMDGIQISLGLWDTAGNDAFRSIRPLSYQQADVVLMCYSVANHNSFLNLKNKWIGEIRSNLPCTPVLVVATQTDQREMGPHRASCVNAMEGKKLAQDVRAKGYLECSALSNRGVQQVFECAVRTAVNQARRRNRRRLFSINECKIF
# Key:
# Test in all cases: co-IP; endogenous proteins; Jurkat cells (WT, and calcineurin Aα knock-out for the TCRζ and Lck precipitations) activated with soluble anti-CD3 and anti-mouse IgG for the indicated times; lysis in 150 mM NaCl, 20 mM Tris pH 7.5, 1% Triton X-100; agarose-conjugated anti-TCRζ or anti-Lck, or Protein G beads with anti-calcineurin Aα or anti-RhoH, 4-6 h; immunoblot
# [1] = molecular target: T1, RhoH (human (endogenous in Jurkat))
# [2] = molecular target: Lck (human (endogenous in Jurkat)) (UniProt P06239)
# [3] = molecular target: TCRζ (human (endogenous in Jurkat)) (UniProt P20963)
Molecule,binding [1],binding [2],binding [3]
pTCRζ^Y83 (from UniProt P20963-1 22-164),binds,,
B1,,binds,binds

# — PMC11407306
